{"source": "PubChem BioAssay AID504791 (Drosophila RNAi Screening Center, 2011)", "screen": "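Factors in Argonaute-based small RNA production and activity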 (primary screen)", "cell system": "Drosophila S2-derived reporter cells", "reagents": "long dsRNA against Drosophila genes, about 150-250 ng dsRNA per well (siRNA assay); about 80-120 ng (miRNA assay)", "timing": "about 5 days (siRNA assay); about 4 days (miRNA assay)", "treatment": "copper sulfate induction of reporters: 25 µM (siRNA assay); 200 mM stated (miRNA assay), 1-2 days before reading", "detection": "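Dual luciferase assay: Renilla to firefly signal ratio in each well, scaled to the mean ratio of its plate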", "units": "stable assay Renilla, run 1 in luminescence; stable assay firefly, run 1 in luminescence", "active means": "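a well was a first-pass pick when its plate-scaled ratio rose above 1.5 (siRNA assay) or 1.6 (miRNA assay), or dropped below 0.6; a gene counted only if two separate dsRNAs agreed on retest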", "note": "The screen tested about 23,000 reagents; below is a random part of those with a known target gene and a result. Over the whole deposit, 199 (0.86%) were called active. 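Plate-scaled ratios behind the calls are not deposited; printed light signals are raw; many rows marked increased or decreased are still called inactive.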 Names joined by + are all predicted targets of the reagent. Not stated in the record: the direction of the score."}
{"gene":"CG6830","amplicon":"DRSC16124","stable assay Renilla, run 1":6467,"stable assay firefly, run 1":3.79e5,"call":"inactive"}
{"gene":"CG33217","amplicon":"DRSC22907","stable assay Renilla, run 1":4752,"stable assay firefly, run 1":5.21e5,"call":"inactive"}
{"gene":"msl-3 (male-specific lethal 3)","amplicon":"DRSC11371","stable assay Renilla, run 1":6298,"stable assay firefly, run 1":4.28e5,"call":"inactive"}
{"gene":"CG10211","amplicon":"DRSC02027","stable assay Renilla, run 1":7937,"stable assay firefly, run 1":5.71e5,"call":"inactive"}
{"gene":"CG6885","amplicon":"DRSC10740","miRNA reporter change":"reporter ratio lowered past the hit cutoff","stable assay Renilla, run 1":6014,"stable assay firefly, run 1":3.98e5,"call":"inactive"}
{"gene":"CG30280","amplicon":"DRSC21761","stable assay Renilla, run 1":8943,"stable assay firefly, run 1":4.45e5,"call":"inactive"}
{"gene":"CecA2 (Cecropin A2)","amplicon":"DRSC16604","stable assay Renilla, run 1":6927,"stable assay firefly, run 1":5.30e5,"call":"inactive"}
{"gene":"CG9676","amplicon":"DRSC20204","stable assay Renilla, run 1":6070,"stable assay firefly, run 1":5.10e5,"call":"inactive"}
{"gene":"e(y)2b (enhancer of yellow 2b)","amplicon":"DRSC12556","stable assay Renilla, run 1":6906,"stable assay firefly, run 1":4.94e5,"call":"inactive"}
{"gene":"CG18249","amplicon":"DRSC15318","stable assay Renilla, run 1":8531,"stable assay firefly, run 1":5.06e5,"call":"inactive"}
{"gene":"kairos","amplicon":"DRSC19972","stable assay Renilla, run 1":6943,"stable assay firefly, run 1":4.35e5,"call":"inactive"}
{"gene":"kairos","amplicon":"DRSC23286","stable assay Renilla, run 1":2976,"stable assay firefly, run 1":2.74e5,"call":"inactive"}
{"gene":"spen (split ends)","amplicon":"DRSC00839","miRNA reporter change":"reporter ratio lowered past the hit cutoff","stable assay Renilla, run 1":11915,"stable assay firefly, run 1":1.12e6,"call":"active"}
{"gene":"CG5819","amplicon":"DRSC04520","stable assay Renilla, run 1":8522,"stable assay firefly, run 1":5.58e5,"call":"inactive"}

Targets listed so far whose target name starts with K or k (2):
{"gene":"kairos","amplicon":"DRSC19972","stable assay Renilla, run 1":6943,"stable assay firefly, run 1":4.35e5,"call":"inactive"}
{"gene":"kairos","amplicon":"DRSC23286","stable assay Renilla, run 1":2976,"stable assay firefly, run 1":2.74e5,"call":"inactive"}

The list goes on:
{"gene":"CG5071","amplicon":"DRSC15710","stable assay Renilla, run 1":5947,"stable assay firefly, run 1":3.29e5,"call":"inactive"}
{"gene":"CG5071","amplicon":"DRSC22570","stable assay Renilla, run 1":4851,"stable assay firefly, run 1":3.77e5,"call":"inactive"}
{"gene":"CG31220","amplicon":"DRSC22248","stable assay Renilla, run 1":8571,"stable assay firefly, run 1":5.65e5,"call":"inactive"}
{"gene":"CG32219","amplicon":"DRSC09641","stable assay Renilla, run 1":5883,"stable assay firefly, run 1":4.40e5,"call":"inactive"}
{"gene":"Nepl20 (Neprilysin-like 20)","amplicon":"DRSC14878","stable assay Renilla, run 1":5955,"stable assay firefly, run 1":3.41e5,"call":"inactive"}
{"gene":"FBXO11 (F-box protein 11)","amplicon":"DRSC16497","stable assay Renilla, run 1":8194,"stable assay firefly, run 1":5.32e5,"call":"inactive"}
{"gene":"E(bx) (Enhancer of bithorax)","amplicon":"DRSC08172","stable assay Renilla, run 1":7283,"stable assay firefly, run 1":4.67e5,"call":"inactive"}
{"gene":"E(bx) (Enhancer of bithorax)","amplicon":"DRSC08509","stable siRNA reporter change":"reporter ratio raised past the hit cutoff","miRNA reporter change":"reporter ratio raised past the hit cutoff","stable assay Renilla, run 1":11672,"stable assay firefly, run 1":2.54e5,"call":"active"}
{"gene":"E(bx) (Enhancer of bithorax)","amplicon":"DRSC08583","stable siRNA reporter change":"reporter ratio raised past the hit cutoff","miRNA reporter change":"reporter ratio raised past the hit cutoff","stable assay Renilla, run 1":20973,"stable assay firefly, run 1":3.13e5,"call":"active"}
{"gene":"gcm2","amplicon":"DRSC03538","stable assay Renilla, run 1":7467,"stable assay firefly, run 1":3.79e5,"call":"inactive"}
{"gene":"CG42354 + CG42353","amplicon":"DRSC20172","stable assay Renilla, run 1":5920,"stable assay firefly, run 1":2.51e5,"call":"inactive"}
{"gene":"Cpr65Ec (Cuticular protein 65Ec)","amplicon":"DRSC11025","stable assay Renilla, run 1":6230,"stable assay firefly, run 1":4.80e5,"call":"inactive"}
{"gene":"wb (wing blister)","amplicon":"DRSC01375","miRNA reporter change":"reporter ratio raised past the hit cutoff","stable assay Renilla, run 1":4764,"stable assay firefly, run 1":2.94e5,"call":"inactive"}
{"gene":"wb (wing blister)","amplicon":"DRSC03634","stable assay Renilla, run 1":6614,"stable assay firefly, run 1":3.21e5,"call":"inactive"}
{"gene":"wb (wing blister)","amplicon":"DRSC23003","stable assay Renilla, run 1":3535,"stable assay firefly, run 1":2.66e5,"call":"inactive"}
